No constants are given. Whether binding was seen depends on the method and setting. Binding seen in cells or lysates may run through a third protein. Some binding calls cover weakened binding; strength is not graded here. For some assays here: Where a sequence is shown, tags or fusion partners need not be part of it.
T1: LRRC23-FLAG (UniProt O35125)
T1 sequence: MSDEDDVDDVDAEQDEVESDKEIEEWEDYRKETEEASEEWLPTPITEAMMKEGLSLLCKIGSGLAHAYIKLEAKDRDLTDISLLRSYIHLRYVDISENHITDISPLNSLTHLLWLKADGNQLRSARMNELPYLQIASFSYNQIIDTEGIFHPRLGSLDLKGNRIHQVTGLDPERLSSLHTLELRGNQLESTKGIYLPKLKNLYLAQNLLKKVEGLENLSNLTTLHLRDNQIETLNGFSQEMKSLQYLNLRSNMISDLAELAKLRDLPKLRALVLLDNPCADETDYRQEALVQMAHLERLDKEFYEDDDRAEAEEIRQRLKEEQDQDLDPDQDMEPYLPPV

Protein sequences, listed by entry. Tags and fused reporters are not part of them.
UniProt Q8CEE6: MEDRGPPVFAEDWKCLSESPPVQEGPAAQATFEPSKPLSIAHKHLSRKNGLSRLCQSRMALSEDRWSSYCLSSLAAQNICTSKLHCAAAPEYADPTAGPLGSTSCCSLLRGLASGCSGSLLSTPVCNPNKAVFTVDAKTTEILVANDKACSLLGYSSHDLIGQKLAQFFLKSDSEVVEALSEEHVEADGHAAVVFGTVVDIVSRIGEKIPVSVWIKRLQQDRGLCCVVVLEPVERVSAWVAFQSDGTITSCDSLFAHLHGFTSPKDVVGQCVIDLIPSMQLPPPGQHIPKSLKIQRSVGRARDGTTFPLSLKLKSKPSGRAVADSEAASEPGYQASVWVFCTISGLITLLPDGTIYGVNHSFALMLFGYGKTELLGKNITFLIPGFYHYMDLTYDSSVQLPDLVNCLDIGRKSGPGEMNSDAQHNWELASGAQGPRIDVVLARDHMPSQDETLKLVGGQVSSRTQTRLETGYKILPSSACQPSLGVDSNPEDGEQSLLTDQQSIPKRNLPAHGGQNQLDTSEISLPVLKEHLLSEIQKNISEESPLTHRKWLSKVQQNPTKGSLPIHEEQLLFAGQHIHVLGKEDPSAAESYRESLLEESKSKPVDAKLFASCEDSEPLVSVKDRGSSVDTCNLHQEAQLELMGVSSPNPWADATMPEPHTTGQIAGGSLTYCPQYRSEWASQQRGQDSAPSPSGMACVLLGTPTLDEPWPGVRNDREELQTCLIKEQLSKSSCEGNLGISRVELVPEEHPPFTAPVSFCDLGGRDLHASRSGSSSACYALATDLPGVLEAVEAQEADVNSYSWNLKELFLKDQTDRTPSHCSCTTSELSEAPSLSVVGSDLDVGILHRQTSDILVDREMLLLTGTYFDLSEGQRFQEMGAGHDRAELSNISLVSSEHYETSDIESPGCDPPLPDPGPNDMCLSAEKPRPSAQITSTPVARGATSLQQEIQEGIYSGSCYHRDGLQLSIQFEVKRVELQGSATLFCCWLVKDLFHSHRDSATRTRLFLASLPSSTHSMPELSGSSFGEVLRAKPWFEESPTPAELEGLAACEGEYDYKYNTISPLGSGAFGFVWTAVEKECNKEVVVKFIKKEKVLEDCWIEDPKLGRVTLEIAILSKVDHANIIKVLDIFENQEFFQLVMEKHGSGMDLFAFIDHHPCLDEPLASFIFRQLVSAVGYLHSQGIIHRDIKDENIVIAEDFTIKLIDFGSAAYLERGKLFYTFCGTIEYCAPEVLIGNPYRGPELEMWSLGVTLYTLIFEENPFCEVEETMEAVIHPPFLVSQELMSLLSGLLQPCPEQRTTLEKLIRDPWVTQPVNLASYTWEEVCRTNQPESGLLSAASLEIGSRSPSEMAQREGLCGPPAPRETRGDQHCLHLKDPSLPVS

T2: LRRC23 (mouse (endogenous in testis)) (UniProt O35125)
T2 sequence: T1 sequence

B1: RSPH9 (protein, UniProt Q9D9V4 1-276)
chain: MDADSLLLSLELASGSGQGLSPDRRASLLTSLMLVKRDYRFARVLFWGRILGLVADYYIAQGLSEDQLAPRKTLYSLNCTEWSLLPPATEEMAMQISVVSGRFMGDPSHEYEHTELQKVNEGEKVFDEEVVVQIKEETRLVSIIDQIDKAVAIIPRGALFKTPFGVTHVNRTFEGLPLSEVRKLSSYFHFREAIDLKNKTLLEKSDLEPSLDFLDSLEYDIPRGSWSIQMERGNALVVLRSLLWPGLTFYHAPRTKNYGYIYVGTGEKNMDLPFML

Tests used:
[1] = target: T1, LRRC23-FLAG; assay: co-IP
[2] = target: T2, LRRC23 (mouse (endogenous in testis)); assay: co-IP

Molecule	binding [1]	binding [2]
PASK-HA (from UniProt Q8CEE6 1-1383)	binds	–
B1	–	binds

Reference: publication doi:10.1101/2021.06.01.446532
